Data as given in PubChem BioAssay AID743454 (Peter MacCallum Cancer Centre, 2014).

- Test: 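Knock-downs lowering viability or raising caspase 3/7 activity in vorinostat-treated resistant cells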 (primary screen)
- System: human HCT116-VR colon cancer cells, selected for vorinostat resistance
- Knock-down reagent: siRNA pool against human genes, 40 nM siRNA pool
- Timing: vorinostat for 24 h, read-out about 72 h after transfection
- Conditions: vorinostat at 2.5 µM final
- Read-out: 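Cell viability by CellTiter-Fluor and caspase 3/7 activity by luminescence, each scaled to mock wells per plate, duplicates averaged, then robust z-scored over all plates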
- Scale: viability robust z-score: higher = more viable cells than screen typical; caspase robust z-score: higher = more caspase 3/7 activity than screen typical
- Call rule: 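Hits are knock-downs in viability class RV1/RV2 or caspase class CA1/CA2, excluding ones that killed cells in the no-drug cell-count arm; hits then retested with single siRNAs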
Shown is a random part of about 18,000 reagents tested. Over the whole deposit, 450 (2.5%) were called active. 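Single biological run; no consistent viability z cut-off exists, so the class columns, not z-scores, define the calls.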 A number with no mark means an inactive call.

{"gene": "AKAP1 (A-kinase anchoring protein 1)", "viability hit class": "no change", "caspase hit class": "no change", "viability robust z-score": 1.15, "caspase robust z-score": 0.49}
{"gene": "IFNG (interferon gamma)", "viability hit class": "no change", "caspase hit class": "no change", "viability robust z-score": 0.05, "caspase robust z-score": 1.31}
{"gene": "TTC32 (tetratricopeptide repeat domain 32)", "viability hit class": "no change", "caspase hit class": "no change", "viability robust z-score": -0.54, "caspase robust z-score": 2.96}
{"gene": "BCL3 (BCL3 transcription coactivator)", "viability hit class": "no change (active)", "caspase hit class": "CA1 (caspase activation)", "viability robust z-score": -1.79, "caspase robust z-score": 5.88}
{"gene": "CCDC63 (coiled-coil domain containing 63)", "viability hit class": "no change", "caspase hit class": "no change", "viability robust z-score": 0.76, "caspase robust z-score": 0.36}
{"gene": "PANX2 (pannexin 2)", "viability hit class": "no change", "caspase hit class": "no change", "viability robust z-score": -0.63, "caspase robust z-score": 1.39}
{"gene": "CHM (CHM Rab escort protein)", "viability hit class": "no change", "caspase hit class": "no change", "viability robust z-score": -0.24, "caspase robust z-score": 0.05}
{"gene": "C6orf163 (chromosome 6 open reading frame 163)", "viability hit class": "no change", "caspase hit class": "no change", "viability robust z-score": 0.5, "caspase robust z-score": 2.16}
{"gene": "TNNI3 (troponin I3, cardiac type)", "viability hit class": "no change", "caspase hit class": "no change", "viability robust z-score": 0.84, "caspase robust z-score": -0.55}
{"gene": "AZGP1 (alpha-2-glycoprotein 1, zinc-binding)", "viability hit class": "no change", "caspase hit class": "no change", "viability robust z-score": -0.94, "caspase robust z-score": 1.38}
{"gene": "DRG1 (developmentally regulated GTP binding protein 1)", "viability hit class": "no change", "caspase hit class": "no change", "viability robust z-score": 0.26, "caspase robust z-score": -0.29}
{"gene": "PKD1", "viability hit class": "no change", "caspase hit class": "no change", "viability robust z-score": -0.09, "caspase robust z-score": 1.84}
{"gene": "OR6X1 (olfactory receptor family 6 subfamily X member 1)", "viability hit class": "no change", "caspase hit class": "no change", "viability robust z-score": -0.82, "caspase robust z-score": 1.04}
{"gene": "SHANK1 (SH3 and multiple ankyrin repeat domains 1)", "viability hit class": "no change", "caspase hit class": "no change", "viability robust z-score": -0.29, "caspase robust z-score": -0.78}
{"gene": "EFNA5 (ephrin A5)", "viability hit class": "no change", "caspase hit class": "no change", "viability robust z-score": -1.13, "caspase robust z-score": 1.09}
{"gene": "OR51A4 (olfactory receptor family 51 subfamily A member 4)", "viability hit class": "no change", "caspase hit class": "no change", "viability robust z-score": -1.25, "caspase robust z-score": -1.02}
{"gene": "POSTN (periostin)", "viability hit class": "no change", "caspase hit class": "no change", "viability robust z-score": 0.45, "caspase robust z-score": 0.54}
{"gene": "CDKL2 (cyclin dependent kinase like 2)", "viability hit class": "no change", "caspase hit class": "no change", "viability robust z-score": -0.32, "caspase robust z-score": -1.01}
{"gene": "ZKSCAN8 (zinc finger with KRAB and SCAN domains 8)", "viability hit class": "no change", "caspase hit class": "no change", "viability robust z-score": -0.42, "caspase robust z-score": 1.34}
{"gene": "QTGAL (queuosine-tRNA galactosyltransferase)", "viability hit class": "no change", "caspase hit class": "no change", "viability robust z-score": -0.84, "caspase robust z-score": 1.5}
{"gene": "RCC1L (RCC1 like)", "viability hit class": "no change", "caspase hit class": "no change", "viability robust z-score": 0.03, "caspase robust z-score": -0.16}
{"gene": "DPYD (dihydropyrimidine dehydrogenase)", "viability hit class": "no change", "caspase hit class": "no change", "viability robust z-score": 0.65, "caspase robust z-score": -0.29}
{"gene": "SH2B2 (SH2B adaptor protein 2)", "viability hit class": "no change", "caspase hit class": "no change", "viability robust z-score": 1.64, "caspase robust z-score": -1.25}
{"gene": "C19orf33 (chromosome 19 open reading frame 33)", "viability hit class": "no change", "caspase hit class": "no change", "viability robust z-score": -1.87, "caspase robust z-score": 1.25}
{"gene": "PPCS (phosphopantothenoylcysteine synthetase)", "viability hit class": "no change", "caspase hit class": "no change", "viability robust z-score": 1.37, "caspase robust z-score": -0.71}
{"gene": "CTSO (cathepsin O)", "viability hit class": "no change", "caspase hit class": "no change", "viability robust z-score": -0.12, "caspase robust z-score": -0.27}
{"gene": "PDS5B (PDS5 cohesin associated factor B)", "viability hit class": "no change", "caspase hit class": "no change", "viability robust z-score": 0.18, "caspase robust z-score": -0.63}

Hits (from the list above):
{"gene": "BCL3 (BCL3 transcription coactivator)", "viability hit class": "no change (active)", "caspase hit class": "CA1 (caspase activation)", "viability robust z-score": -1.79, "caspase robust z-score": 5.88}
